Data as given in PubChem BioAssay AID1347076 (National Center for Advancing Translational Sciences (NCATS), 2019).
Out of some 400,000 compounds screened, about 13,000 (3.2%) were called active. Inconclusive means that the source gave no clear call. Such entries were picked first, then a sample of the others. Calls follow the shape of the dose curve; as a rule, active = well fitted cell-killing curve with a large enough effect; inconclusive = small, poorly fitted or top-dose-only effect, or effect the other way; inactive = flat fitted curve, though single readings scatter. Potencies of inconclusive entries are doubtful fits and often do not repeat.

Assay: qHTS assay for MDR1-selective chemotherapeutics: Primary screen using the drug-selected MDR subline cells KB-V1; also: nearly all actives have a fitted effect of over 60% in size
Conditions: KB-V1 MDR cells viability, CellTiter-Glo, 72 h; activity change, negative = cytotoxicity: at 46.1 µM (top of the series)
Summary of the method: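 Potencies derive from concentration-effect curves fitted to normalized luminescence (CellTiter-Glo) of KB-V1 cells treated for 72 h at 37 degrees C in phenol-red-free DMEM containing 10% FBS.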
% is scaled to controls: 0 for no effect and ±100 for the full control effect; potency is read from the fitted curve at half-maximal effect.

Row | SMILES | Potency | activity change, negative = cytotoxicity
1 | N=c1n(Cc2ccccc2)c2ccccc2n1CC(O)COc1ccc(Cl)cc1Cl (configuration not stated) | inconclusive: 29.1 µM [cytotoxic, partial curve, poor fit] | –
2 | Cc1c(C(=O)N2CCN(Cc3ccccc3)CC2)sc2ncnc(N3CCOCC3)c12 | active: 18.4 µM | –
3 | CC(N=C(NC#N)Nc1ccncc1)C(C)(C)C (configuration not stated) | inconclusive: 29.1 µM [cytotoxic, single point] | –
4 | COC(=O)C1=C(C)NC(=O)/C1=C\c1cc(C)n(-c2cc(C)cc(C)c2)c1C | inconclusive: 32.6 µM [cytotoxic, single point] | –
5 | COc1ccc(-c2nc(SCC(=O)Nc3ccc4c(c3)OCCO4)c(-c3ccc(C)cc3)[nH]2)cc1OC | – | inactive: -17.8%
6 | CN(C)c1ccc(/C=N/NC(=O)Cn2nnc3ccccc32)cc1 | – | inactive: 6.48%
7 | CCOc1ccc2nc(N/C(N)=N/C(=S)Nc3ccc(C)c(C)c3)nc(C)c2c1 | – | inactive: -24.1%
8 | C(=N\Nc1ccc2nncn2n1)/c1ccco1 | – | inactive: 8.37%
9 | Cc1ccc2nc(-c3ccc(NC(=S)NCC(C)(C)CN(C)C)cc3)sc2c1 | inconclusive: 18.4 µM [cytotoxic, single point] | –
10 | CC(C)Cc1nn2c(=O)cc(COc3ccc(NC(=O)c4ccco4)cc3)nc2s1 | inconclusive: 1.3 µM [cytotoxic, full curve] | –
11 | CN(C)/C=C/C1=CC(=O)CC(C)(C)C1 | – | inactive: -9.13%
12 | CCOc1ccc(N(CC(=O)NCc2ccc(F)cc2)S(=O)(=O)c2c(C)noc2C)cc1 | inconclusive: 16.4 µM [cytotoxic, partial curve, poor fit] | –
13 | c1ccc(-c2cc(-c3nn4c(-c5ccco5)nnc4s3)c3ccccc3n2)cc1 | – | inactive: -17.1%
14 | CC(C)(C)OC(=O)N1CCC(c2nnc(SCc3cccc(Cl)c3)o2)CC1 | active: 18.4 µM | –
15 | COc1ccc(C(=O)C2CCCN(C(=O)c3ccnn3C)C2)c(C)c1 (configuration not stated) | inconclusive: 13 µM [cytotoxic, partial curve, poor fit] | –
16 | O=C(CNC(=O)COc1ccccc1)NCCN1CCOCC1 | inconclusive: 11.6 µM [rising, partial curve] | –
17 | Cc1ccc(CNC(=O)CN2C(=O)COc3ccc(S(=O)(=O)Nc4ccccc4)cc32)cc1 | – | inactive: 0%
18 | CNC(=O)C(=O)NCCc1ccc(Cl)cc1 | inconclusive: 32.6 µM [rising, single point] | –
19 | CCCCCCCNC(=O)c1ccc(N2CCC3(CC2)OCCO3)c([N+](=O)[O-])c1 | active: 9.2 µM | –
20 | CCOc1ccc(NC(=O)CN(C)Cc2cc(=O)n3c(-c4ccccc4)csc3n2)cc1OCC | inconclusive: 9.2 µM [cytotoxic, partial curve] | –
21 | COc1cccc(-n2c(SCC(N)=O)nnc2-c2c[nH]c3ccccc23)c1 | inconclusive: 20.6 µM [rising, single point] | –
22 | CCCCn1c(SCC(=O)Nc2cc(NC(=O)c3ccco3)ccc2C)nc2ccccc2c1=O | inconclusive: 0.82 µM [cytotoxic, full curve, poor fit] | –
23 | c1ccc(CCNc2ncnc3ccccc23)cc1 | inconclusive: 29.1 µM [cytotoxic, partial curve, poor fit] | –
24 | Cc1ccc(S(=O)(=O)NC(=O)NC(C)c2ccc(F)cc2)cc1 (configuration not stated) | inconclusive: 5.8 µM [rising, full curve] | –

Row | SMILES | Potency | activity change, negative = cytotoxicity
25 | COc1ccc(OC)c(Nc2nc(C3CC3)nc3c2nnn3Cc2ccccc2)c1 | active: 2.06 µM | –
26 | COc1ccc2[nH]c(=O)c(CN(Cc3ccco3)C(=O)c3ccccc3)cc2c1 | – | inactive: -18.1%
27 | COc1ccc(CCNC(=O)c2cc(-c3ccccn3)nc3ccccc23)cc1 | inconclusive: 10.3 µM [cytotoxic, partial curve, poor fit] | –
28 | COc1ccc(C)cc1NC(=O)C(NCC1CCCO1)c1ccccc1 (configuration not stated) | active: 16.4 µM | –
29 | COc1ccccc1CNC(=O)Cc1csc(NC(=O)Nc2ccccc2OC)n1 | inconclusive: 18.4 µM [cytotoxic, single point] | –
30 | COc1ccc(-n2nnnc2CNC(=O)C2CC(=O)N(c3ccc(Cl)cc3)C2)cc1 (configuration not stated) | – | inactive: 12%
31 | Cc1cc(C)n(CC(C)NC(=O)c2cc(COc3c(F)cccc3F)on2)n1 (configuration not stated) | inconclusive: 10.3 µM [cytotoxic, partial curve] | –
32 | O=C(NC1=NCCS1)c1cc(-c2cccc(Br)c2)nc2ccccc12 | active: 14.6 µM | –
33 | CCOc1ccc(N(C(C)C(=O)N2CCOCC2)S(C)(=O)=O)cc1 (configuration not stated) | – | inactive: -0.404%
34 | Cc1ccc(C(=O)N/N=C\C=C\c2ccc(Br)cc2)cn1 | – | inactive: -4.85%
35 | Cc1c(C(=O)Nc2ccc3c(c2)OCO3)sc2ncn(CC(=O)N3CC(C)CC(C)C3)c(=O)c12 (configuration not stated) | – | inactive: 13%
36 | CC1CN(C(=O)c2ccc(-c3cccc(C(F)(F)F)c3)o2)CC(C)O1 (configuration not stated) | inconclusive: 14.6 µM [cytotoxic, partial curve] | –
37 | CCOC(=O)N1CCN(C(=O)C[C@@H]2C[C@@]3(C(=O)OC)CC(C)(C)CC=C3N(CCc3ccc(OC)c(OC)c3)C2=O)CC1 | inconclusive: 8.2 µM [cytotoxic, partial curve, poor fit] | –
38 | CC(=O)Nc1ccc(S(=O)(=O)NCCC(=O)NCc2ccncc2)cc1 | – | inactive: 21.1%
39 | CC(C)c1ccccc1NC(=S)NCc1ccccc1F | inconclusive: 29.1 µM [cytotoxic, single point] | –
40 | C[C@@H]1CN([C@@H](C)CO)C(=O)CCCn2nncc2CO[C@@H]1CN(C)S(=O)(=O)c1cn(C)cn1 | – | inactive: -4.09%
41 | CCOc1ccc(CCNC(=O)c2ccc3c(c2)c(C)c(C)n3Cc2ccccc2)cc1OCC | inconclusive: 10.3 µM [cytotoxic, partial curve] | –
42 | O=C(Nc1ccc(Cl)cc1)c1nc[nH]c1C(=O)Nc1ccccc1F | – | inactive: -17.8%
43 | CN(C)CCNc1ccc(CO)c2sc3ccc(O)cc3c(=O)c12 | inconclusive: 29.1 µM [cytotoxic, single point] | –
44 | Cc1ccc(S(=O)(=O)N2CCOCC2)cc1NC(=O)CNCc1cccnc1 | – | inactive: -2.21%
45 | N#Cc1c(Cl)nsc1NC(=O)c1ccccc1 | active: 7.31 µM | –
46 | O=C1C=C(NCc2ccc(Cl)c(Cl)c2)CC1 | – | inactive: 0.578%
47 | COc1cccc(C(NC(C)=O)c2nc(-c3csc4ccccc34)cs2)c1 (configuration not stated) | – | inactive: -1.89%

Record cards, as listed above. Order of values: Potency	activity change, negative = cytotoxicity
CC1CN(C(=O)c2ccc(-c3cccc(C(F)(F)F)c3)o2)CC(C)O1 (configuration not stated) is listed as inconclusive: 14.6 µM [cytotoxic, partial curve]	–
CCOC(=O)N1CCN(C(=O)C[C@@H]2C[C@@]3(C(=O)OC)CC(C)(C)CC=C3N(CCc3ccc(OC)c(OC)c3)C2=O)CC1 is listed as inconclusive: 8.2 µM [cytotoxic, partial curve, poor fit]	–
